This note sets out measurements from PubChem BioAssay AID344 (DTP/NCI, 2004).

The list shows only some results of the screen, not a fair sample: it is rich in T/C values a quarter to a half above the control, in often repeated tests (any T/C) and in doses without a T/C. Other doses and runs of a compound stand elsewhere. T/C gives the treated animals as a percentage of the vehicle group. Where survival is the endpoint, the PubChem record calls one and a half times the control and up active, and a quarter to a half above the control has no call in these data; cut-offs in other NCI protocols can differ. Schedule codes are those of the source, taken here to give the interval after Q, in days (D) or hours (H), and the number of doses after X. Some schedules carry Z or #; the key to these is not given. Some T/C values are followed by the survivors on the day toxicity was checked, most often the fifth; without a count, all were alive then.

This test concerns mice, LPC-1 plasma cell tumor ip, median survival T/C. Description: NCI In Vivo Anticancer Drug Screen. Data for tumor model Lieberman Plasma Cell No. 1 (LPC-1) (intraperitoneal) in unknown mice. The settings on record: T/C endpoint: median survival time, vehicle: saline, higher T/C = longer survival. How it is done:
The antitumor activity of compounds was measured in mice bearing transplantable tumors. Survival or tumor size were measured and the results are expressed as the measurement made in the treated group (T) divided by the measurement made in the vehicle treated control group (C). The tumor model used in this assay is Lieberman Plasma Cell No. 1 (LPC-1) (intraperitoneal) in unknown mice

As for `O=c1[nH]cc(F)c(=O)[nH]1`, the T/C is, setting by setting: (dose: 16.0 mg/kg/injection, schedule: Q01DX003 (sc)) 125 % of control [9 of 10 alive]; (dose: 16.0 mg/kg/injection, schedule: Q01DX004 (sc)) 130 % of control; (dose: 24.0 mg/kg/injection, schedule: Q01DX024 (sc)) 146 % of control; (dose: 24.0 mg/kg/injection, schedule: Q## X008 (sc)) 143 % of control; (dose: 26.7 mg/kg/injection, schedule: Q01DX003 (sc)) 137 % of control; (dose: 44.5 mg/kg/injection, schedule: Q01DX001 (sc)) 130 % of control. Further, the T/C is 132 % of control [9 of 10 alive] (dose: 44.5 mg/kg/injection, schedule: Q01DX002 (sc)); 146 % of control (dose: 48.0 mg/kg/injection, schedule: Q## X008 (sc)); 134 % of control (dose: 48.0 mg/kg/injection, schedule: Q## X012 (sc)).
